doi:10.1101/471045
Results are given in words; binding and its absence hold for the method and conditions named. In cells and extracts the contact can be indirect. Some results given as binding are weak or reduced against the parent protein; the word gives no strength.

Legend:
[1] = biological target: HPV16 E7 E10K variant, Flag and HA epitope tagged (human papillomavirus 16) (UniProt P03129); experiment: co-IP
[2] = biological target: HPV16 E7 (WT), Flag and HA epitope tagged (human papillomavirus 16) (UniProt P03129); experiment: co-IP

B1: retinoblastoma tumor suppressor (RB1) (protein, UniProt P06400 1-928)
chain: MPPKTPRKTAATAAAAAAEPPAPPPPPPPEEDPEQDSGPEDLPLVRLEFEETEEPDFTALCQKLKIPDHVRERAWLTWEKVSSVDGVLGGYIQKKKELWGICIFIAAVDLDEMSFTFTELQKNIEISVHKFFNLLKEIDTSTKVDNAMSRLLKKYDVLFALFSKLERTCELIYLTQPSSSISTEINSALVLKVSWITFLLAKGEVLQMEDDLVISFQLMLCVLDYFIKLSPPMLLKEPYKTAVIPINGSPRTPRRGQNRSARIAKQLENDTRIIEVLCKEHECNIDEVKNVYFKNFIPFMNSLGLVTSNGLPEVENLSKRYEEIYLKNKDLDARLFLDHDKTLQTDSIDSFETQRTPRKSNLDEEVNVIPPHTPVRTVMNTIQQLMMILNSASDQPSENLISYFNNCTVNPKESILKRVKDIGYIFKEKFAKAVGQGCVEIGSQRYKLGVRLYYRVMESMLKSEEERLSIQNFSKLLNDNIFHMSLLACALEVVMATYSRSTSQNLDSGTDLSFPWILNVLNLKAFDFYKVIESFIKAEGNLTREMIKHLERCEHRIMESLAWLSDSPLFDLIKQSKDREGPTDHLESACPLNLPLQNNHTAADMYLSPVRSPKKKGSTTRVNSTANAETQATSAFQTQKPLKSTSLSLFYKKVYRLAYLRLNTLCERLLSEHPELEHIIWTLFQHTLQNEYELMRDRHLDQIMMCSMYGICKVKNIDLKFKIIVTAYKDLPHAVQETFKRVLIKEEEYDSIIVFYNSVFMQRLKTNILQYASTRPPTLSPIPHIPRSPYKFPSSPLRIPGGNIYISPLKSPYKISEGLPTPTKMTPRSRILVSIGESFGTSEKFQKINQMVCNSDRVLKRSAEGSNPPKPLKKLRFDIEGSDEADGSKHLPGESKFQQKLAEMTSTRTRMQKQKMNDSMDTSNKEEK
- binding [1]: binds
- binding [2]: binds
